Consider 2 sequences from paper PMC10530651, “Mechanisms of Regulation of the CHRDL1 Gene by the TWIST2 and ADD1/SREBP1c Transcription Factors”.

For at least one entry, the source does not settle the construct or the ends of the probe. Weaker means in comparison with the reference protein, sequence or condition of that experiment. Where a protein sequence is shown, tags need not be part of it.

One data set deals with T1, TWIST1 (Homo sapiens) (UniProt Q15672).
T1 sequence (looked up, limits assumed): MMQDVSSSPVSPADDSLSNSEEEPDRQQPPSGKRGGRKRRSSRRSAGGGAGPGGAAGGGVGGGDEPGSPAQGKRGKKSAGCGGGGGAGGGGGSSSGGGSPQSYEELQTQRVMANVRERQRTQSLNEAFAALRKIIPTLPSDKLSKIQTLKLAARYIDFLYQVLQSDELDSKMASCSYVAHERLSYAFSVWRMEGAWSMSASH
The experiment in a line: EMSA. Particulars: weakly detected; EMSA: 20 mM HEPES pH 7.9, 60 mM KCl, 1 mM MgCl2, 0.5 mM DTT, 10% glycerol, 10 µL with 1-3 µL TnT lysate; competitor at least 50x molar excess; 6% native gel, 0.5X TBE; protein translated in vitro; protein details: Myc; label: 32P as probe, unlabeled as competitor. In general terms: In EMSA bound probe runs differently from free probe, usually more slowly.

The next data set deals with T2, TWIST2 (Homo sapiens) (UniProt Q8WVJ9).
T2 sequence (looked up, limits assumed): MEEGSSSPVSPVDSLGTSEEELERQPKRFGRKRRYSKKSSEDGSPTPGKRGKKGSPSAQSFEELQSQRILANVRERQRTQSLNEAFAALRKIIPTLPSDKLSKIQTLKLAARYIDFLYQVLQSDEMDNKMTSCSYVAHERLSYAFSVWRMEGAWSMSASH
The experiment in a line: competition with a labelled probe. To be noted: partial competition vs labeled CH2700EA; EMSA: 20 mM HEPES pH 7.9, 60 mM KCl, 1 mM MgCl2, 0.5 mM DTT, 10% glycerol, 10 µL with 1-3 µL TnT lysate; competitor at least 50x molar excess; 6% native gel, 0.5X TBE; protein translated in vitro; protein details: N-terminal Myc; label: unlabeled competitor.

For the sequence “TGGTGGTGGTCACATGAATATACACATGCGATAAAATT (double strand) [CH2700EA]”, the binding result with TWIST1 (Homo sapiens) is “binds more weakly”.
Regarding “TGGTGGTGGTCACATGAATATACGCACGCGATAAAATT (double strand) [CH2700EWAM]”, in the data set with TWIST2 (Homo sapiens), the binding result was “binds more weakly”.
